In the assay the target is bcl-2 wild-type protein fused to FLAG peptide (H1299 FLAG-bcl-2) (human) (UniProt P10415). Kind of assay: affinity purification with mass spectrometry; H1299 FLAG-bcl-2 cells cross-linked with 1.0% PFA, lysed in 40 mM HEPES pH 7.4, 150 mM NaCl, 0.3% CHAPS; anti-FLAG antibody with Protein A/G agarose overnight at 4 °C; SDS-PAGE, 12 slices, nLC-MS/MS; proteins found with FLAG-empty vector subtracted.

Sequences of proteins named here, by UniProt entry; tags and fusion partners are left off. Residues count along the entry.
UniProt P10415: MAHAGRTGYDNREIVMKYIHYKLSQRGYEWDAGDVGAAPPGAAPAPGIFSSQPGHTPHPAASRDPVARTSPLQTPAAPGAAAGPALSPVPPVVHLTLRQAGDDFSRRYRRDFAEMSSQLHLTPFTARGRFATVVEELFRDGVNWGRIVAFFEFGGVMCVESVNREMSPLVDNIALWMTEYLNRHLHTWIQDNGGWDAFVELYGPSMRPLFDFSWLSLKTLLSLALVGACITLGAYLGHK
UniProt P20674, residues 42-150: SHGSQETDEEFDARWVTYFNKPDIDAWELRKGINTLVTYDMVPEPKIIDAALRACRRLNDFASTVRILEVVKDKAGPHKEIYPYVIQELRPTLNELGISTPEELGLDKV
UniProt P25786: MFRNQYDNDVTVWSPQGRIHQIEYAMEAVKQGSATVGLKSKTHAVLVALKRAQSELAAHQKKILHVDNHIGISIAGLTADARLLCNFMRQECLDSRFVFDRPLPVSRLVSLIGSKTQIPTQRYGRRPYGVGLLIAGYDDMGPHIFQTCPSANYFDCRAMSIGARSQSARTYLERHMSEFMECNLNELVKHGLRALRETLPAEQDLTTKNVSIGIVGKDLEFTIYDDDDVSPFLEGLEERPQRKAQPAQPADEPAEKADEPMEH
UniProt P25787: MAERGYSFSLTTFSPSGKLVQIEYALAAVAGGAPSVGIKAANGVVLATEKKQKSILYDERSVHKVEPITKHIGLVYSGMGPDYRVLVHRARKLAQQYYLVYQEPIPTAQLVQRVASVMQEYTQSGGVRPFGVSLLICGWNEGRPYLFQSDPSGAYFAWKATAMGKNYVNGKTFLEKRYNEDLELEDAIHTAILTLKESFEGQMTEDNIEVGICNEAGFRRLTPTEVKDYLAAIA
UniProt P28066: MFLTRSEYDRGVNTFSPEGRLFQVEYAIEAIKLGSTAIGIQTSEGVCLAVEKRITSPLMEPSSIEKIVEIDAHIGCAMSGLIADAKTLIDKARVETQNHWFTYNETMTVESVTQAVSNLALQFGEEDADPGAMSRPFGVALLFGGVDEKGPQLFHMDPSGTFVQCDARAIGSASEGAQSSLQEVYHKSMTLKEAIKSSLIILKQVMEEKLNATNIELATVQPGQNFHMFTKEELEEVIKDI
UniProt P21796: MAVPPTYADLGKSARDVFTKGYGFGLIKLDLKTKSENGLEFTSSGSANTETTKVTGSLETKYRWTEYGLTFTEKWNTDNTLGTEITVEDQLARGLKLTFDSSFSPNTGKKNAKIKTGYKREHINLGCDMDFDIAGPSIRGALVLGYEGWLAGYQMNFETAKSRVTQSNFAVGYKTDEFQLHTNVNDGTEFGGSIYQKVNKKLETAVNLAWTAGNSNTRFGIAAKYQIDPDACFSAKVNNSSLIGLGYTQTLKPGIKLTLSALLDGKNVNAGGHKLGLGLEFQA

Results are given in words; binding and its absence hold for the method and conditions named. Binding seen in cells or lysates may run through a third protein. A yes stands for co-enrichment or nearness to the bait. Other partners may have been found.

Consider “cytochrome c oxidase subunits Va (COX5A) (from UniProt P20674 42-150)”, for which the binding result is “binds”. For “proteasome subunit alpha type 1 (from UniProt P25786 1-263)” the value was “binds”; for “proteasome subunit alpha type 2 (from UniProt P25787 1-234)”, “binds”; for “proteasome subunit alpha type 5 (from UniProt P28066 1-241)”, “binds”. As to “voltage-dependent anion channel 1 (VDAC1) (from UniProt P21796 1-283)”, the binding result is recorded as “binds”.

The values above are taken from PMC4849145.
